# Laboratory results: article PMC6382350
# No constants are given. Whether binding was seen depends on the method and setting. Binding seen in cells or lysates may run through a third protein.
# Biological target: GFP-Prod (Drosophila melanogaster)
# Assay: co-IP; GFP-Trap magnetic beads on lysates of larval brains (wor-gal4) or Upd testis tumors (nos-gal4) expressing GFP-Prod; lysis in 50 mM Tris pH 7.5, 5% glycerol, 0.2% IGEPAL, 1.5 mM MgCl2, 125 mM NaCl; 3 hr at 4°C; blotted with anti-GFP and anti-D1
binder,measurement,value
"D1 (protein, UniProt P22058 1-355) MEEVAVKKRGRPSKASVGGKSSTAAVAAISPGIKKRGRPAKNKGSSGGGGQRGRPPKASKIQNDEDPEDEGEEDGDGDGSGAELANNSSPSPTKGRGRPKSSGGAGSGSGDSVKTPGSAKKRKAGRPKKHQPSDSENEDDQDEDDDGNSSIEERRPVGRPSAGSVNLNISRTGRGLGRPKKRAVESNGDGEPQVPKKRGRPPQNKSGSGGSTGYVPTGRPRGRPKANAAPVEKHEDNDDDQDDENSGEEEHSSPEKTVVAPKKRGRPSLAAGKVSKEETTKPRSRPAKNIDDDADDADSADQGQHNSKKESNDEDRAVDGTPTKGDGLKWNSDGENDANDGYVSDNYNDSESVAA",binding,no binding
